Laboratory results: article PMC3473020
No constants are given. Whether binding was seen depends on the method and setting. In cells and extracts the contact can be indirect. Some entries that bind do so weakly or less than the wild type.

The chains behind the UniProt entries cited, without tags or fusion partners.
UniProt P99999: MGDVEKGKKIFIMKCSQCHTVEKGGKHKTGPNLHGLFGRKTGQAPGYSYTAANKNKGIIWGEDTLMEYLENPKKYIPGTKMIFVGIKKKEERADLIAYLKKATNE
UniProt P04792: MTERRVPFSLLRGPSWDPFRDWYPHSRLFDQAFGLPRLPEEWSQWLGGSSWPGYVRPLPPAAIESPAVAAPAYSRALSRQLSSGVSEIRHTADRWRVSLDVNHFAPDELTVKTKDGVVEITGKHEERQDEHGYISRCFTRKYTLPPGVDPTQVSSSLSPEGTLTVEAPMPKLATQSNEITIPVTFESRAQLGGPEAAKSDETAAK

Biological target: cytochrome c (human (endogenous in U2OS)) (UniProt P99999)
Test: co-IP; cell lysate (50 mM HEPES pH 7.6, 150 mM NaCl, 5 mM EDTA, 0.1% NP-40) incubated with a cytochrome c antibody (1:100) at 4°C overnight, protein A-sepharose, western blot for Hsp27; cells with or without bufalin treatment

binding	Substance
binds	Hsp27 over-expressed from pCMV6-AC-Hsp27 (from UniProt P04792 1-205)
binds	heat shock protein 27 (from UniProt P04792 1-205)
